Test: Odor value (vapour pressure divided by olfactive threshold)
Settings: vapour pressure (ng/L) divided by olfactive threshold value (ng/L)

C=CCc1ccc(O)c(OC)c1 [Eugenol]
odor value: 346904

— patent EP1184030A1, “Antibacterial composition comprising trimethylnorbornanylcyclohexanol derivatives” (Givaudan SA, priority 2000, dated 2002)
